Reference: patent US20050069951A1
No constants are given. Whether binding was seen depends on the method and setting. For some of these results: Binding calls can cover weak binding; strength is not graded here.

Experiments:
[1] = biological target: H. influenzae tyrosine tRNA synthetase (H. influenzae); test: ELSA: biotinylated peptide, immobilized target
[2] = biological target: H. influenzae tyrosine tRNA synthetase (H. influenzae); test: ELSA on immobilized TyrRS with a tyrosyladenylate inhibitor
[3] = biological target: H. influenzae tyrosine tRNA synthetase (H. influenzae); test: ELSA, immobilized TyrRS
[4] = biological target: H. influenzae tyrosine tRNA synthetase (H. influenzae); test: ELSA, immobilized targets (FIG. 13a)

Binder: LYSWPDEQYERP (biotinylated, position not stated) [biotinylated peptide TyrRS1]
- binding [1]: binds
- binding [2]: binds

Binder: VCAIWPDLDGC (biotinylated, position not stated) [biotinylated ProRS surrogate ligand peptide]
- binding [3]: no binding
- binding [4]: no binding
